Results: article PMC12140118
Numbering of substitutions follows the chain as printed. These are yes or no findings as the source states them, for the method shown. Binding seen in cells or lysates may run through a third protein. These calls come from enrichment with a bait or labelling near it, and not all partners need be listed. For some of these results: Tags and fused reporters may be left off the sequences shown.

Chains of the proteins cited; added tags and fusions are not shown.
UniProt P21187: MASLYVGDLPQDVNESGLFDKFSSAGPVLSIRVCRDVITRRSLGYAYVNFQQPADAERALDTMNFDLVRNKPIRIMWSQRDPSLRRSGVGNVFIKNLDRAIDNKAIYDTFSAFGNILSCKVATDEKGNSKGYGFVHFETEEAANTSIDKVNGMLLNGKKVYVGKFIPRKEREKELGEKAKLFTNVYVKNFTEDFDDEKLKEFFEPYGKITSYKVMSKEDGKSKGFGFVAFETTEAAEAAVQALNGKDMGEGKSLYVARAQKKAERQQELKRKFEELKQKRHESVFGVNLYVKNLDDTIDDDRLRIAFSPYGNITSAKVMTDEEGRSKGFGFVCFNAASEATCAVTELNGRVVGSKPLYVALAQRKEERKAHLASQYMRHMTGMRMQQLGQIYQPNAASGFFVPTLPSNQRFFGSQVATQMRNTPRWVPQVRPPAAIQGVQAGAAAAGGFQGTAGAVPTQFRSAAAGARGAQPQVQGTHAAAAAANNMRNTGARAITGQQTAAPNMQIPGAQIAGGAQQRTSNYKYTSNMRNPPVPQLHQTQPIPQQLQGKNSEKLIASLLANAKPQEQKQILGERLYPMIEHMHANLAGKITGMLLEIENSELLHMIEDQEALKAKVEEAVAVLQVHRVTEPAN

T1: Top3β::eGFP (Drosophila Topoisomerase 3β, wild type, fused to eGFP) (Drosophila melanogaster) (UniProt O96651)
T1 sequence: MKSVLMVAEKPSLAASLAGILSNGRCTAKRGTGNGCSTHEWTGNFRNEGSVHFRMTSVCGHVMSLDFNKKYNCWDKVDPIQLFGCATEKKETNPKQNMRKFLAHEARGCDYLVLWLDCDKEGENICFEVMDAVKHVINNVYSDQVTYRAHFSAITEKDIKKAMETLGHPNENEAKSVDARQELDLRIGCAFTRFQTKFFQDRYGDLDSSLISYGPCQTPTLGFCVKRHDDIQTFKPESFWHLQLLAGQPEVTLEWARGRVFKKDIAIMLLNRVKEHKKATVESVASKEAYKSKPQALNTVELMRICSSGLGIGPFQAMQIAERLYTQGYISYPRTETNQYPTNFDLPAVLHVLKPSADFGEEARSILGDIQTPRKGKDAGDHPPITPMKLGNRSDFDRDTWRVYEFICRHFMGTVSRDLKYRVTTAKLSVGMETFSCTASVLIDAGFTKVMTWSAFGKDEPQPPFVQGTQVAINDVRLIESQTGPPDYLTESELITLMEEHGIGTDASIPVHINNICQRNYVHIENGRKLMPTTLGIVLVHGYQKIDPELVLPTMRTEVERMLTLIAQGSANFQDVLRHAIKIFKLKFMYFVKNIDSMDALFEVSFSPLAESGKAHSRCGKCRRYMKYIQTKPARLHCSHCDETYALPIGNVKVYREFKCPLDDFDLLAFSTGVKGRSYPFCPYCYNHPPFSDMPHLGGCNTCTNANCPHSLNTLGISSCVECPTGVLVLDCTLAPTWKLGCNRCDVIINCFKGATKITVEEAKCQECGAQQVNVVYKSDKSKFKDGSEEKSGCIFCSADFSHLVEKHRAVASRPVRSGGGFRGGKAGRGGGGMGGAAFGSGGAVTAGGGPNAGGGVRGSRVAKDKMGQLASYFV

T2: Top3β^Y332F::eGFP (Drosophila melanogaster) (UniProt O96651)
T2 sequence: T1 sequence with Y332F

B1: Me31B (protein, UniProt P23128 1-459)
chain: MMTEKLNSGHTNLTSKGIINDLQIAGNTSDDMGWKSKLKLPPKDNRFKTTDVTDTRGNEFEEFCLKRELLMGIFEKGWERPSPIQEAAIPIALSGKDVLARAKNGTGKTGAYCIPVLEQIDPTKDYIQALVMVPTRELALQTSQICIELAKHLDIRVMVTTGGTILKDDILRIYQKVQLIIATPGRILDLMDKKVADMSHCRILVLDEADKLLSLDFQGMLDHVILKLPKDPQILLFSATFPLTVKNFMEKHLREPYEINLMEELTLKGVTQYYAFVQERQKVHCLNTLFSKLQINQSIIFCNSTQRVELLAKKITELGYCCYYIHAKMAQAHRNRVFHDFRQGLCRNLVCSDLFTRGIDVQAVNVVINFDFPRMAETYLHRIGRSGRFGHLGIAINLITYEDRFDLHRIEKELGTEIKPIPKVIDPALYVANVGASVGDTCNNSDLNNSANEEGNVSK
B2: eIF4E1 (protein, UniProt P48598 1-259)
chain: MQSDFHRMKNFANPKSMFKTSAPSTEQGRPEPPTSAAAPAEAKDVKPKEDPQETGEPAGNTATTTAPAGDDAVRTEHLYKHPLMNVWTLWYLENDRSKSWEDMQNEITSFDTVEDFWSLYNHIKPPSEIKLGSDYSLFKKNIRPMWEDAANKQGGRWVITLNKSSKTDLDNLWLDVLLCLIGEAFDHSDQICGAVINIRGKSNKISIWTADGNNEEAALEIGHKLRDALRLGRNNSLQYQLHKDTMVKQGSNVKSIYTL
B3: Cup (protein, UniProt Q9VMA3 1-1117)
chain: MQMAEAEQENGAGALKIATNAGATDRPAHQQLPLPVEDQQDEVLTPAEKGKFEYPPPPPPPTPVQAPLATKATALNASQEHDDDEANSEKWEDPCAPPPPPPLPTSAFLATGLGYLKLPAFKLKDALEKAITKLEANKRTLKASPESSRSIKNKNVVALEMLPRRSNPETIGDGSMLASTSTAVMLQTKKPAVIVEMERRCKIINLLAKQNQILESISGEAIPMHGPSKHLHEDEGLTLQVLSARASTPYTQPSSMLSCTAVSCDLEHDSPRKQVASKEAVPEQQSSQVQQKRPPSTGIHKPGSLRAPKAVRPTTAPVVSSKPVKSYTRSRLMDIRNGMFNALMHRSKESFVMPRIATCDDIELEGRLRRMNIWRTSDGTRFRTRSTTANLNMNNNNNNECMPAFFKNKNKPNLISDESIIQSQPPQPQTEFQDPAIVNQRRIGSGRLNHSKWGYNDEDYHSYHNGKSQHMEEVNSKNSKNMTVLQFFDNGEISSQPQRRPNTPVMGMSINRSENDTLHSNESSEDLSRANENYVKRVMSGFLVVSKPKSRDVEDRHHRRYRNQNEEPEWFSCGPTSRLDTIELCGFDEDEEKMLKEGNKNHGLGETERETSKQKMDHKYKWTHAEPMGRSKYMPKHDTNNNHNVENMNNVMATEHQQQKEEKRPGSGRSFQFDKFNQSQQNYESSSYVNHQQPPQTQPQQMQQQSNTNTNNSKFMSFFANEGNSSSSSLNEFFKQAINQGHGNNPEQPKSLGHIGQMPSVDQLEAKWRRNSLNNVGETANKQTDNFQKLIGSLSSAKPQSQAVGYDAISNFIMQQQQYQQQQQKQHLIIQQQQQHTAFLASLQLKAILGRADTQLLLLRLTKGEISKHGLLVQLANPRLTDMDREAITAVLQFTNTQQQQQQHKQQLDMLSSTVIASQLQNLHNLAIVQQTLAARQQPQHNPQTQAPHQLSQEDLQAHANVIMRNAVMKRKIEEQTSKLINGGAKHQAQQQYLNRGQQRQARPDANSNALLHALISGGGNNHASGYPMNGQPQKHHSNLRFGDNQNFQSFESNQPHFATQYKQQYQQSQQQHPHQQPQQLNSLHQNNAGAVNSFNKAQMQAQSAISMLPNSGDEFH
B4: Ago2 (protein, UniProt Q9VUQ5 1-1214)
chain: MGKKDKNKKGGQDSAAAPQPQQQQKQQQQRQQQPQQLQQPQQLQQPQQLQQPQQQQQQQPHQQQQQSSRQQPSTSSGGSRASGFQQGGQQQKSQDAEGWTAQKKQGKQQVQGWTKQGQQGGHQQGRQGQDGGYQQRPPGQQQGGHQQGRQGQEGGYQQRPPGQQQGGHQQGRQGQEGGYQQRPSGQQQGGHQQGRQGQEGGYQQRPPGQQQGGHQQGRQGQEGGYQQRPSGQQQGGHQQGRQGQEGGYQQRPPGQQQGGHQQGRQGQEGGYQQRPPGQQQGGHEQGRQGQEGGYQQRPSGQQQGGHQQGRQGQEGGYQQRPSGQQQGGHQQGRQGQEGGYQQRPSGQQQGGHQQGRQGQEGGYQQRPPGQQPNQTQSQGQYQSRGPPQQQQAAPLPLPPQPAGSIKRGTIGKPGQVGINYLDLDLSKMPSVAYHYDVKIMPERPKKFYRQAFEQFRVDQLGGAVLAYDGKASCYSVDKLPLNSQNPEVTVTDRNGRTLRYTIEIKETGDSTIDLKSLTTYMNDRIFDKPMRAMQCVEVVLASPCHNKAIRVGRSFFKMSDPNNRHELDDGYEALVGLYQAFMLGDRPFLNVDISHKSFPISMPMIEYLERFSLKAKINNTTNLDYSRRFLEPFLRGINVVYTPPQSFQSAPRVYRVNGLSRAPASSETFEHDGKKVTIASYFHSRNYPLKFPQLHCLNVGSSIKSILLPIELCSIEEGQALNRKDGATQVANMIKYAATSTNVRKRKIMNLLQYFQHNLDPTISRFGIRIANDFIVVSTRVLSPPQVEYHSKRFTMVKNGSWRMDGMKFLEPKPKAHKCAVLYCDPRSGRKMNYTQLNDFGNLIISQGKAVNISLDSDVTYRPFTDDERSLDTIFADLKRSQHDLAIVIIPQFRISYDTIKQKAELQHGILTQCIKQFTVERKCNNQTIGNILLKINSKLNGINHKIKDDPRLPMMKNTMYIGADVTHPSPDQREIPSVVGVAASHDPYGASYNMQYRLQRGALEEIEDMFSITLEHLRVYKEYRNAYPDHIIYYRDGVSDGQFPKIKNEELRCIKQACDKVGCKPKICCVIVVKRHHTRFFPSGDVTTSNKFNNVDPGTVVDRTIVHPNEMQFFMVSHQAIQGTAKPTRYNVIENTGNLDIDLLQQLTYNLCHMFPRCNRSVSYPAPAYLAHLVAARGRVYLTGTNRFLDLKKEYAKRTIVPEFMKKNPMYFV

What was measured:
Experiment in all cases: affinity purification with mass spectrometry; Top3β::eGFP (wild type or mutant) captured from extracts of 0-2 hours old embryos by mouse anti-GFP antibody on Protein G magnetic beads; 25 mM Hepes pH 7.4, 150 mM NaCl, 0.5 mM EDTA, 1 mM DTT; 6 hours at 4°C; abundance compared with an eGFP-only control by quantitative MS
[1] = target: T1, Top3β::eGFP (Drosophila Topoisomerase 3β, wild type, fused to eGFP) (Drosophila melanogaster)
[2] = target: T2, Top3β^Y332F::eGFP (Drosophila melanogaster)
[3] = target: Top3β^ΔRGG::eGFP (Drosophila melanogaster) (UniProt O96651)

Row | binding [1] | binding [2] | binding [3] | Molecule
1 | binds |  |  | pAbp (from UniProt P21187 1-634)
2 | binds |  |  | B1
3 | binds |  |  | B2
4 | binds |  |  | B3
5 | binds | binds | binds | B4
